Experimental data: PubChem BioAssay AID1224830 (NIAID, 2016)
In all, the deposit lists about 18,000 reagents; this is a part drawn at random. In the full data, about 2,900 (16%) are marked active. 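Calls are made per well; low scores hint the gene aids the LPS response, high scores that it dampens it.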 Repeated entries: four replicate wells of each siRNA pool.

- Aim: 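Genes whose knock-down alters the TNF-alpha reporter response to LPS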 (primary screen)
- Cells: human THP-1 monocytic leukaemia cells, TNF dual-luciferase reporter clone, PMA-differentiated to macrophage-like cells
- Knock-down reagent: siRNA pool against human genes, 50 nM
- Timing: LPS for 4 h, given about 3 days after siRNA transfection
- Conditions: bacterial LPS (TLR4 ligand), 10 ng/ml
- Read-out: 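Ratio of firefly to renilla light, scaled to the plate median and expressed as a robust z-score per replicate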
- Reading the numbers: TNF reporter robust z-score: higher = stronger TNF reporter response to LPS
- Active means: 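Each well counts as active if its z-score is over 2.8 or under -1.5; controls are left without a call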

| gene | TNF reporter robust z-score | Call |
| --- | --- | --- |
| LAD1 | 0.49 | inactive |
| LAD1 | 2.03 | inactive |
| LAD1 | 1.38 | inactive |
| LAD1 | 2.05 | inactive |
| PRDM7 | 0.88 | inactive |
| PRDM7 | 1.97 | inactive |
| PRDM7 | 0.2 | inactive |
| RAB41 | 3.2 | active |
| RAB41 | 5.21 | active |
| RAB41 | 0.92 | inactive |
| RAB41 | 0.33 | inactive |
| CIAPIN1 | -1.08 | inactive |
| CIAPIN1 | -1.35 | inactive |
| CIAPIN1 | -1.16 | inactive |
| CIAPIN1 | -1.22 | inactive |
| SHBG | -0.6 | inactive |
| SHBG | -0.14 | inactive |
| SHBG | -0.26 | inactive |
| SHBG | -0.36 | inactive |
| SERPINB4 | 0.73 | inactive |
| SERPINB4 | 0.62 | inactive |
| SERPINB4 | 0.69 | inactive |
| SERPINB4 | 2.32 | inactive |
| RAMP1 | 0.55 | inactive |
| RAMP1 | 1.01 | inactive |
| RAMP1 | -0.1 | inactive |
| RAMP1 | -0.46 | inactive |
| GTSF1 | -0.95 | inactive |
| GTSF1 | -0.17 | inactive |
| GTSF1 | -0.28 | inactive |
| GTSF1 | 0.16 | inactive |
| NYX | 0.26 | inactive |
| NYX | -0.33 | inactive |
| NYX | -0.1 | inactive |
| CKS1B | -0.2 | inactive |
| CKS1B | 0.31 | inactive |
| CKS1B | 0.69 | inactive |
| CKS1B | 0.62 | inactive |
| RARB | -1.08 | inactive |
| RARB | -0.9 | inactive |
| RARB | -0.66 | inactive |
| RARB | -0.57 | inactive |
| SLC6A4 | 0.39 | inactive |
| SLC6A4 | 0.52 | inactive |
| SLC6A4 | 0.57 | inactive |
| SLC6A4 | 1.44 | inactive |
| MANEA | -0.07 | inactive |
| MANEA | 0.15 | inactive |
| MANEA | 0.11 | inactive |
| MANEA | 0.72 | inactive |
| BCL9 | -0.25 | inactive |
| BCL9 | -0.23 | inactive |
| BCL9 | -0.37 | inactive |
| BCL9 | -0.08 | inactive |
| OR52B4 | 0.15 | inactive |
| OR52B4 | 0.31 | inactive |
| OR52B4 | -1.19 | inactive |
| OR52B4 | 0.43 | inactive |
| HIF1A | 0.86 | inactive |
| HIF1A | 1.08 | inactive |
| HIF1A | -0.88 | inactive |
| HIF1A | 0.51 | inactive |
| GRIP1 | -0.81 | inactive |
| GRIP1 | 0.52 | inactive |
| GRIP1 | 0.47 | inactive |
| GRIP1 | 1.55 | inactive |
| EML2 | -1.04 | inactive |
| EML2 | -0.85 | inactive |
| EML2 | -0.68 | inactive |
| EML2 | -0.94 | inactive |
| GJD2 | -0.87 | inactive |
| GJD2 | -0.46 | inactive |
| GJD2 | -0.97 | inactive |
| GJD2 | -1.07 | inactive |
| TFR2 | 0.05 | inactive |
| TFR2 | 1.5 | inactive |
| TFR2 | 2.86 | active |
| TFR2 | 1.23 | inactive |
